Laboratory results as given in publication PMC5492163.

Molecular target: T1, p140Cap (mouse (endogenous in synaptosomes of the telencephalon)) (UniProt Q9QWI6)
T1 sequence: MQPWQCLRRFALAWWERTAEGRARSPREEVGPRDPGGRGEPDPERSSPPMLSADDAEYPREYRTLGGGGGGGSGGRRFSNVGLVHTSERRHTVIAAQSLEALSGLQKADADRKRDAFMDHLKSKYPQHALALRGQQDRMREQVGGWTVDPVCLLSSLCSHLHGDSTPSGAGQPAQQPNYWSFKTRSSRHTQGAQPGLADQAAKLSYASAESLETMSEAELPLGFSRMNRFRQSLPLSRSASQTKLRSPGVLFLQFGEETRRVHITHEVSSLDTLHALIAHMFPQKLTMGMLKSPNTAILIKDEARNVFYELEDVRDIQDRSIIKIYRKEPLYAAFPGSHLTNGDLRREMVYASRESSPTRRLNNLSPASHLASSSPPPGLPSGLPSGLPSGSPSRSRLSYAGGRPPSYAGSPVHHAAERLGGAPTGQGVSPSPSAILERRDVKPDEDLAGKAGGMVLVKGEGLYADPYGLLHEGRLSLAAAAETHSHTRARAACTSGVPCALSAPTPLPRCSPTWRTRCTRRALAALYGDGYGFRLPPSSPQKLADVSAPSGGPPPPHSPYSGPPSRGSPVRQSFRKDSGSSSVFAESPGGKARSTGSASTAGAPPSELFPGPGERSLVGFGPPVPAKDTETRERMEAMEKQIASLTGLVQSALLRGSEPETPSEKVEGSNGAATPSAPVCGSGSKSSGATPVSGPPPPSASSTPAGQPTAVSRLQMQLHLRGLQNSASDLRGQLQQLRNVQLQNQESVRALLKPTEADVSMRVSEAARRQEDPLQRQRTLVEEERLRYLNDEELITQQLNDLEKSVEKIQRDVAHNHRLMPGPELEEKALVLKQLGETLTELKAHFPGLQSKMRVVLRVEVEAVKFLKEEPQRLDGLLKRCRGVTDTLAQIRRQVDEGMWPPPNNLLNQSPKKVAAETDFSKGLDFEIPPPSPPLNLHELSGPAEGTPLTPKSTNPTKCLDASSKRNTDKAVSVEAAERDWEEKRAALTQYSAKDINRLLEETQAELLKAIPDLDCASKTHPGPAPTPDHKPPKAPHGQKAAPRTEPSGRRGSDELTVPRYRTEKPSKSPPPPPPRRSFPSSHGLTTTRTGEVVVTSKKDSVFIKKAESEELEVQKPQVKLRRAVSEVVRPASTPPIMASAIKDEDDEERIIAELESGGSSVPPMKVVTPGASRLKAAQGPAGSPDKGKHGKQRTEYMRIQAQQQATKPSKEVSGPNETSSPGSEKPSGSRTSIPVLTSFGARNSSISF
Assay: affinity purification with mass spectrometry; p140Cap immunoprecipitated with Mab 2A8 cross-linked to protein G Dynabeads from 6 mg crude synaptosomal extract of WT mice (p140Cap KO as negative control), 2 h at 4°C, lysis buffer 150 mM NaCl, 50 mM Tris pH 7, 1% NP-40; label-free nanoLC-MS/MS, iBAQ, FDR 1% and at least 4-fold enrichment over KO

binding: binds
B1: RIMS1 (protein, UniProt Q99NE5 1-1463)
chain: MSSAVGPRGPRPPTVPPPMQELPDLSHLTEEERNIIMAVMDRQKEEEEKEEAMLKCVVRDMAKPAACKTPRNAESQPHQPPLNIFRCVCVPRKPSSEEGGPDRNWRLHQQFESYKEQVRKIGEEARRYQGEHKDDAPTCGICHKTKFADGCGHLCSYCRTKFCARCGGRVSLRSNNEDKVVMWVCNLCRKQQEILTKSGAWFFGSGPQQPSQDGTLSDTATGAGSEVPREKKARLQERSRSQTPLSTAAVSSQDTASHGAPLDRNKGAEPSQQALGPEQKQASRSRSEPPRERKKAPGLSEQNGKGGQKSERKRVPKSVVQPGEGTADERERKERRETRRLEKGRSQDYPDRLEKREDGRVAEDEKQRKEEEGVSTPEYTSCEDVELESESVSEKGDLDYWLDPATWHSRETSPISSHPVTWQPSKEGDRLIGRVILNKRTTMPKESGALLGLKVVGGKMTDLGRLGAFITKVKKGSLADVVGHLRAGDEVLEWNGKPLPGATNEEVYNIILESKSEPQVEIIVSRPIGDIPRIPESSHPPLESSSSSFESQKMERPSISVISPTSPGALKDAPQVLPGQLSVKLWYDKVGHQLIVNVLQATDLPPRVDGRPRNPYVKMYFLPDRSDKSKRRTKTVKKLLEPKWNQTFVYSHVHRRDFRERMLEITVWDQPRVQDEESEFLGEILIELETALLDDEPHWYKLQTHDESSLPLPQPSPFMPRRHIHGESSSKKLQRSQRISDSDISDYEVDDGIGVVPPVGYRASARESKATTLTVPEQQRTTHHRSRSVSPHRGDDQGRPRSRLPNVPLQRSLDEIHPTRRSRSPTRHHDASRSLADHRSRHAESQYSSEPDSELLMLPRAKRGRSAECLHMTSELQPSLDRARSASTNCLRPDTSLHSPERERGRWSPSLARRRPASPRIQIQHASPENDRHSRKSERSSIQKQSRKGTASDADRVLPPCLSRRGYAIPRATDQPVIRGKHTTRSRSSEHSSIRTLCSMHHLAPGGSAPPSPLLTRTHRQGSPTQSPPADTSFGSRRGRQLPQVPVRSGSIEQASLVVEERTRQMKMKVHRFKQTTGSGSSQELDHEQYSKYNIHKDQYRSCDNASAKSSDSDVSDVSAISRASSTSRLSSTSFMSEQSERPRGRISSFTPKMQGRRMGTSGRAIIKSTSVSGEIYTLEHNDGSQSDTAVGTVGAGGKKRRSSLSAKVVAIVSRRSRSTSQLSQTESGHKKLKSTIQRSTETGMAAEMRKMVRQPSRESTDGSINSYSSEGNLIFPGVRVGPDSQFSDFLDGLGPAQLVGRQTLATPAMGDIQIGMEDKKGQLEVEVIRARSLTQKPGSKSTPAPYVKVYLLENGACIAKKKTRIARKTLDPLYQQSLVFDESPQGKVLQVIVWGDYGRMDHKCFMGVAQILLEELDLSSMVIGWYKLFPPSSLVDPTLTPLTRRASQSSLESSSGPPCIRS

Results are given in words; binding and its absence hold for the method and conditions named. In cells and extracts the contact can be indirect. Here binding means that the protein was enriched with, or labelled near, the bait; the list need not be complete.
